Results are given in words; binding and its absence hold for the method and conditions named. In cells and extracts the contact can be indirect. Binding can be weak; no strength is given.
Target: GST-CAPN3, exon 6 deletion variant (Δ6) of Capn3 (mouse)
Experiment: pull-down; GST fusion (or GST) bound to GST sepharose beads from cleared E. coli lysate and washed; IM2 mouse myoblast lysate (buffer B: 50 mM Tris-HCl pH 7.5, 150 mM NaCl, 0.2% Triton X-100; pre-treated with GST sepharose beads) added, overnight at 4°C; beads washed 5x; immunoblot with anti-CAPN3 or anti-PARVB; only the target purified

B1: endogenous PARVB of IM2 myoblasts (protein, UniProt Q9ES46 1-365)
chain: MSSAPPRSPTPRAPKMKKDESFLGKLGGTLARKKKTREVTDLQEEGKSAINSPMAPALVDIHPEDTQLEENEERTMIDPTSREDPKFKELVKVLLDWINDVLAEERIIVKQLEEDLYDGQVLQKLLEKLAHCKLNVAEVTQSEIGQKQKLQTVLEAVQDLLRPHGWPLRWNVDSIHGKNLVAILHLLVSLAMHFRAPIHLPEHVTVQVVVVRKREGLLHSSHISEELTTTTEIMMGRFERDAFDTLFDHAPDKLNLVKKSLITFVNKHLNKLNLEVTDLETQFADGVYLVLLLGLLEDYFVPLHNFYLTPDSFDQKVHNVAFAFELMLDGGLKKPKARPEDVVNLDLKSTLRVLYTLFTKYKDVE
**Q.** For B1, which binding is on record?
**A.** binds

From PMC2774517
